Assay results published in patent US12559560B2, “Antibody-based compositions for targeting tropomyosin receptor kinase B (TrkB) isoforms” (Fred Hutchinson Cancer Center, priority 2020, dated 2026).
For at least one compound, name, drawing or mass did not settle the structure.

How the values were obtained:
TrkB.T1-transduced NSCs = experiment: CellTiter-Glo viability, PI3K and mTOR inhibitors on TrkB.T1-transduced NSCs; assay type: cell-based, human
TrkB.FL-transduced NSCs = experiment: CellTiter-Glo viability, PI3K and mTOR inhibitors on TrkB.FL-transduced NSCs; assay type: cell-based, human; details: 48 and 72 h, dose dependent manner, data not shown

## O=c1cc(N2CCOCC2)oc2c(-c3ccccc3)cccc12 [LY294002]
TrkB.T1-transduced NSCs; 48 hours, F(1,24)=10.03, p=0.0042
  sensitivity of TrkB.T1 NSCs relative to TrkB.FL NSCs: more sensitive
TrkB.T1-transduced NSCs; 72 hours, F(1,24)=12.91, p=0.0015
  sensitivity of TrkB.T1 NSCs relative to TrkB.FL NSCs: more sensitive
TrkB.T1-transduced NSCs; TrkB.T1 NSCs, 48 and 72 h, dose dependent manner, data not shown
  sensitivity of cells to inhibitor (cell viability): sensitive
TrkB.FL-transduced NSCs
  sensitivity of cells to inhibitor (cell viability): sensitive
